Test results taken from doi:10.1101/2025.09.09.675193.
Results are given in words; binding and its absence hold for the method and conditions named. Binding seen in cells or lysates may run through a third protein. Some results given as binding are weak or reduced against the parent protein; the word gives no strength. Where a sequence is shown, tags or fusion partners need not be part of it.

The chains behind the UniProt entries cited, without tags or fusion partners. Where a name states a change or a piece, a line headed by the entry shows the natural chain unless it says otherwise.
UniProt Q92547: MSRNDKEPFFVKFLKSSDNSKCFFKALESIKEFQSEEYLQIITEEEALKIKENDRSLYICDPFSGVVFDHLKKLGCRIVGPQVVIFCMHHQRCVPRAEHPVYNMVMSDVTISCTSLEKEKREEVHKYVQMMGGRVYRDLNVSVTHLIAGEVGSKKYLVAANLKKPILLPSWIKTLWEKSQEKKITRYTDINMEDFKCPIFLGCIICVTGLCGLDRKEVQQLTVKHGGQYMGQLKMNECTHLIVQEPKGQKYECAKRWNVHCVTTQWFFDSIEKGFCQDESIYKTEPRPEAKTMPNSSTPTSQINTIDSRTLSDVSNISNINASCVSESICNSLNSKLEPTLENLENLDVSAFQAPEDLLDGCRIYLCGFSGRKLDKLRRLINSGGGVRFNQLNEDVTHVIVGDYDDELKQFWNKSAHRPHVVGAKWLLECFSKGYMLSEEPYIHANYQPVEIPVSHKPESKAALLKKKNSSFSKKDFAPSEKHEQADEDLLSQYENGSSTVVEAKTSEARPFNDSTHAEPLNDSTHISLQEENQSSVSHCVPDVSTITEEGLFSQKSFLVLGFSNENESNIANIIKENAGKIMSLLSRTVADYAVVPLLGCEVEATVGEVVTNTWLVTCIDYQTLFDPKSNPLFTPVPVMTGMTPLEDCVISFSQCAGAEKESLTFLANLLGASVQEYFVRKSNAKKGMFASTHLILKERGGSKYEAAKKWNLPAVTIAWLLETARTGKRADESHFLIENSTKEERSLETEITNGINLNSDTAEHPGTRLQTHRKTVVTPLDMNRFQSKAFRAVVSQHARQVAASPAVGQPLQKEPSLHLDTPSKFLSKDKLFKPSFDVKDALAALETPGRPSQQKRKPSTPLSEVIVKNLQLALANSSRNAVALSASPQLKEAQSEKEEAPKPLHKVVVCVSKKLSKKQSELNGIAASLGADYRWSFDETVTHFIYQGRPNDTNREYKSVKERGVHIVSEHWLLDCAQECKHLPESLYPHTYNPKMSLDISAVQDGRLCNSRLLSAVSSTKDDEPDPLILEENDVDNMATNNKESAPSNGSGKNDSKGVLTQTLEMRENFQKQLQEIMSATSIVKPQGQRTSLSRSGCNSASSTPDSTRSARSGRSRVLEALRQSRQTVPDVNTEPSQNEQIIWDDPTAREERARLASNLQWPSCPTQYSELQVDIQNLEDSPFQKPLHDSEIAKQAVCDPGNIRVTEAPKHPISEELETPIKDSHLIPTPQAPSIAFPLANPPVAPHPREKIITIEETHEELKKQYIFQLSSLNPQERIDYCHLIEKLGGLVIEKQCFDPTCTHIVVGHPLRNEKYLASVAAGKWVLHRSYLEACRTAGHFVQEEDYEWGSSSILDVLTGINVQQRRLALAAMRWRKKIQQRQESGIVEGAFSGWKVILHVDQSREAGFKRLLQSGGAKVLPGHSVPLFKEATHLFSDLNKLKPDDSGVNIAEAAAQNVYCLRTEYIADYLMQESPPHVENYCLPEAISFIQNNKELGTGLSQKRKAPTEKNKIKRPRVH

How the values were obtained:
Assay in all cases: co-IP
[1] = molecular target: GFP-TOPBP1 BRCT7 mutant (K1317A) (human) (UniProt Q92547)
[2] = molecular target: GFP-TOPBP1 BRCT5 mutant (K704A) (human) (UniProt Q92547)
[3] = molecular target: GFP-tagged WT TOPBP1 (human) (UniProt Q92547)
[4] = molecular target: GFP-TOPBP1 BRCT5+7 double mutant (K704A and K1317A) (human) (UniProt Q92547)

B1: Halo-tagged DDIAS, wild type (protein, UniProt Q8IXT1-1 1-998)
chain: MNRRRKFLLASVLALQNSSFIYPSCQKCFSRIILVSKRSNCPKCGSTGESGNANYRYKLSLKVAESNKLFVITVFGSCLDTFFGLTATGLHRYIQDPNKIPETLDNDTTQNLLTKAVETCFVGQSFIFGVTNFENQPGQGSDASNFLQQCSDHKRKAKALVACQIVLPDPGIAGFTVIDYFHQLLQTFNFRKLQCDSQAPNNHLLALDHSNSDLSSIYTSDSTSDFFKSCSKDTFSKFWQPSLEFTCIVSQLTDNDDFSASEQSKAFGTLQQNRKSISIAEATGSSSCHDPIQDSWSLVSYMDKKSTAEKLGKELGLQAKELSAVHSSHHEIGVNDSNLFSLEMREPLESSNTKSFHSAVEIKNRSQHELPCFQHHGIDTPTSLQKRSACCPPSLLRLEETASSSQDGDPQIWDDLPFSESLNKFLAVLESEIAVTQADVSSRKHHVDNDIDKFHADHSRLSVTPQRTTGALHTPPIALRSSQVIVKANCSKDDFLFNCKGNLSPSVEKESQPDNKVEAVSVNHNGRDMSEYFLPNPYLSALSSSSKDLETIVTLKKTIRISPHRESDHSSLNNKYLNGCGEISVSEMNEKLTTLCYRKYNDVSDLCKLENKQYCRWSKNQDDSFTICRKLTYPLETLCNSPNRSTNTLKEMPWGHINNNVTQSYSIGYEGSYDASADLFDDIAKEMDIATEITKKSQDILLKWGTSLAESHPSESDFSLRSLSEDFIQPSQKLSLQSLSDSRHSRTCSPTPHFQSDSEYNFENSQDFVPCSQSTPISGFHQTRIHGINRAFKKPVFYSDLDGNYEKIRIFPENDKQQASPSCPKNIKTPSQKIRSPIVSGVSQPDVFNHYPFAECHETDSDEWVPPTTQKIFPSDMLGFQGIGLGKCLAAYHFPDQQELPRKKLKHIRQGTNKGLIKKKLKNMLAAVVTKKKTHKYNCKSSGWISKCPDIQVLAAPQLHPILGPDSCSEVKCCLPFSEKGPPSVCETRSAWSPELFS
Q: Which binding [1] does the source give for B1 here?
A: Its binding is “binds”.

Q: And the binding [2]?
A: The binding was “binds”.

Q: And the binding [3]?
A: Its binding is “binds”.

Q: And the binding [4]?
A: The binding was “binds weakly”.
